# In paper PMC3749138:
# B1: Xp54 helicase (protein, UniProt P54824 1-481)
# chain: MSTARTENPVLMGMSSQNGQLRGPLKPSAGPGGGGTQTQQINQLKNASTINSGSQQQAQSMSSIIKPGDDWKKTLKLPPKDLRIKTSDVTSTKGNEFEDYCLKRELLMGIFEMGWEKPSPIQEESIPIALSGRDILARAKNGTGKSGAYLIPLLERLDLKKDCIQAMVIVPTRELALQVSQICIQVSKHMGGAKVMATTGGTNLRDDIMRLDDTVHVVIATPGRILDLIKKGVAKVDHIQMIVLDEADKLLSQDFMQIMEDIIMTLPKNRQILLYSATFPLSVQKFMTLHLQKPYEINLMEELTLKGVTQYYAYVTERQKVHCLNTLFSRLQINQSIIFCNSSQRVELLAKKISQLGYSCFYIHAKMRQEHRNRVFHDFRNGLCRNLVCTDLFTRGIDIQAVNVVINFDFPKLAETYLHRIGRSGRFGHLGLAINLITYDDRFNLKSIEEQLGTEIKPIPSSIDKNLYVAEYHSESGEDKP
# Biological target: FLAG-MS2-x4E-T (Xenopus 4E-T, wild type) (Xenopus)
# Assay: co-IP; extracts of Xenopus stage VI oocytes expressing FLAG-MS2-x4E-T from injected mRNA; anti-FLAG and Protein-G-Sepharose, NET buffer, 4 h at 4°C, elution with FLAG peptide; western blotting
binder,measurement,value
B1,binding,binds

# No constants are given. Whether binding was seen depends on the method and setting. Binding seen in cells or lysates may run through a third protein. Binding calls can cover weak binding; strength is not graded here.
